In ChEMBL document CHEMBL4513141, “CO-ADD screening of NIH (USA) - Clinical Collection” (2021):
The other results are listed elsewhere or left out. Results with a measured potency or affinity are listed apart.

The compounds below were run on Acinetobacter baumannii. Conditions: Concentration 20 uM; ASSAY_TEST Inhibition of Bacterial Growth; detection method Absorption (OD600); MEDIA CAMHB; plate type 384well; NBS; CORNING #3640; time 18 hr.

SMILES | Inhibition
COc1ccc2[nH]cc(CCN)c2c1 [5-METHOXYTRYPTAMINE] | 13.31%
C[N+]1(CCC(C(N)=O)(c2ccccc2)c2ccccc2)CCCCC1.[Br-] [FENPIVERINIUM BROMIDE] | 18.01%
COc1cc([C@@H]2c3cc4c(cc3[C@H](O)[C@H]3COC(=O)[C@H]23)OCO4)cc(OC)c1OC [PODOFILOX] | 33.5%
CN(C)CCOc1ccc(/C(=C(/CCCl)c2ccccc2)c2ccccc2)cc1.O=C(O)CC(O)(CC(=O)O)C(=O)O [TOREMIFENE CITRATE] | 21.87%
COc1cc(N)c(Cl)cc1C(=O)NC1CN2CCC1CC2.Cl.O (stereo not drawn) [ZACOPRIDE HYDROCHLORIDE] | 8.33%
CC(=O)OC1C([N+]2(C)CCCCC2)C[C@H]2C3CC[C@H]4C[C@H](OC(C)=O)C([N+]5(C)CCCCC5)CC4(C)[C@H]3CCC12C.[Br-].[Br-] (stereo partly drawn) | 19.67%
Cl.N=C(N)NC(=O)c1nc(Cl)c(N)nc1N.O.O [AMILORIDE HYDROCHLORIDE] | 11.89%
CNC(=O)Oc1ccc2c(c1)[C@]1(C)CCN(C)C1N2C.CNC(=O)Oc1ccc2c(c1)[C@]1(C)CCN(C)C1N2C.O=S(=O)(O)O (stereo partly drawn) | 24.77%
CN1[C@@H]2CC[C@H]1C[C@@H](OC(=O)c1c[nH]c3ccccc13)C2.Cl | 23.42%
CC(=O)[C@H]1CC[C@H]2[C@@H]3CCC4=CC(=O)CC[C@]4(C)[C@H]3CC[C@]12C [PROGESTERONE] | 21.89%
CCOC(=O)c1ncn2c1CN(C)C(=O)c1cc(F)ccc1-2 [FLUMAZENIL] | 13.44%
C[C@]12CC[C@H](O)CC1=CC[C@@H]1[C@@H]2CC[C@]2(C)C(=O)CC[C@@H]12 [PRASTERONE] | 27.01%
Cc1cc(NS(=O)(=O)c2ccc(N)cc2)no1 [SULFAMETHOXAZOLE] | 6.61%
C[C@H](CCC(=O)O)[C@H]1CC[C@H]2[C@@H]3C(=O)C[C@@H]4CC(=O)CC[C@]4(C)[C@H]3CC(=O)[C@]12C [DEHYDROCHOLIC ACID] | 5.61%
C#CCN(C)[C@H](C)Cc1ccccc1.Cl [SELEGILINE HYDROCHLORIDE] | 9.56%
CC(C)CC(N(C)C)C1(c2ccc(Cl)cc2)CCC1 (stereo not drawn) [SIBUTRAMINE] | 8.16%
CN(C)C(=O)C(CCN1CCC(O)(c2ccc(Cl)cc2)CC1)(c1ccccc1)c1ccccc1.Cl [LOPERAMIDE HYDROCHLORIDE] | 29.59%
C[C@]12CC[C@H]3[C@@H](CCC4=CC(=O)CC[C@@H]43)[C@@H]1CC[C@@H]2O [NANDROLONE] | 9.8%
CC(C)(C)NCC(O)c1cc(O)cc(O)c1.O=S(=O)(O)O (stereo not drawn) | 7.9%
Cl.O=C1CC2(CCCC2)CC(=O)N1CCCCN1CCN(c2ncccn2)CC1 [BUSPIRONE HYDROCHLORIDE] | 28.1%
CN1[C@@H](CC(=O)c2ccccc2)CCC[C@H]1C[C@H](O)c1ccccc1.Cl [LOBELINE HYDROCHLORIDE] | 13.32%

SMILES | Inhibition
Br.CN1[C@@H]2CC(OC(=O)[C@H](CO)c3ccccc3)C[C@H]1[C@@H]1O[C@@H]12.O.O.O (stereo partly drawn) | 28.47%
CS(=O)(=O)O.O=C(O[C@@H]1C[C@@H]2C[C@H]3C[C@H](C1)N2CC3=O)c1c[nH]c2ccccc12 | 9.89%
CN/C(=N\CCSCc1nc[nH]c1C)NC#N [CIMETIDINE] | 19.7%
C[C@]12CC[C@H]3[C@@H](CCC4=CC(=O)CC[C@@]43C)[C@@H]1CC[C@@H]2O [TESTOSTERONE] | 8.83%
NC(=O)C[S+]([O-])C(c1ccccc1)c1ccccc1 (stereo not drawn) [MODAFINIL] | 6.81%
O=C1CN=C(c2ccccc2)c2cc([N+](=O)[O-])ccc2N1 [NITRAZEPAM] | 19.66%
Cl.c1ccc2c(CC3=NCCN3)cccc2c1 [NAPHAZOLINE HYDROCHLORIDE] | 22.4%
NS(=O)(=O)c1cc(C2(O)NC(=O)c3ccccc32)ccc1Cl (stereo not drawn) [CHLORTHALIDONE] | 6.16%
Cc1ncc2n1-c1ccc(Cl)cc1C(c1ccccc1F)=NC2.Cl [MIDAZOLAM HYDROCHLORIDE] | 6.77%
Cn1c(=O)c2nc[nH]c2n(C)c1=O.O [THEOPHYLLINE] | 9.61%
CN(C)CCc1c[nH]c2ccc(C[C@H]3COC(=O)N3)cc12 [ZOLMITRIPTAN] | 13.79%
CN1C(=O)CN=C(c2ccccc2)c2cc([N+](=O)[O-])ccc21 [NIMETAZEPAM] | 27.05%
COc1cc(CNC(=O)CCCC/C=C\C(C)C)ccc1O [ZUCAPSAICIN] | 26.82%
Cl.NCC(O)c1ccc(O)c(O)c1 (stereo not drawn) | 28.77%
C[N+]1(C)CCCC(OC(=O)C(O)(c2ccccc2)c2ccccc2)C1.[Br-] (stereo not drawn) [MEPENZOLATE BROMIDE] | 20.1%
C[N+]1(C)CCN(c2ccccc2)CC1.[I-] [DIMETHYLPHENYLPIPERAZINIUM IODIDE] | 27.94%
CN(C)CCC=C1c2ccccc2CCc2ccccc21.Cl [AMITRIPTYLINE HYDROCHLORIDE] | 29.85%
C=C1C[C@@H]2[C@H](CC[C@]3(C)C(=O)CC[C@@H]23)[C@@]2(C)C=CC(=O)C=C12 [EXEMESTANE] | 21.54%
CN1[C@@H]2CC[C@H]1CC(OC(=O)C(CO)c1ccccc1)C2 (stereo partly drawn) | 6.07%
O=C(O[C@@H]1Cc2c(O)cc(O)cc2O[C@@H]1c1cc(O)c(O)c(O)c1)c1cc(O)c(O)c(O)c1 [EPIGALOCATECHIN GALLATE] | 29.27%
CCN(C(C)=O)c1cccc(-c2ccnc3c(C#N)cnn23)c1 [ZALEPLON] | 3.56%

Gathered by group: those above with a nitro group on carbon.
SMILES | Inhibition
O=C1CN=C(c2ccccc2)c2cc([N+](=O)[O-])ccc2N1 [NITRAZEPAM] | 19.66%
CN1C(=O)CN=C(c2ccccc2)c2cc([N+](=O)[O-])ccc21 [NIMETAZEPAM] | 27.05%

Further records follow.

SMILES | Inhibition
COC(=O)C1=C(C)NC(C)=C(C(=O)OC)C1c1ccccc1[N+](=O)[O-] [NIFEDIPINE] | 26.35%
CNC1=Nc2ccc(Cl)cc2C(c2ccccc2)=[N+]([O-])C1 [CHLORDIAZEPOXIDE] | 27.16%
CC1CCC[C@H](O)CCCCCc2cc(O)cc(O)c2C(=O)O1 (stereo partly drawn) | 9.95%
COc1ccc2[nH]cc(C3=CCNCC3)c2c1.COc1ccc2[nH]cc(C3=CCNCC3)c2c1.O=C(O)CCC(=O)O | 33.42%
Nc1nc(F)nc2c1ncn2[C@@H]1O[C@H](CO)[C@@H](O)[C@@H]1O [FLUDARABINE] | 3.25%
C=C(C)CN1CC[C@]23c4c5ccc(O)c4O[C@H]2c2[nH]c4ccccc4c2C[C@@]3(O)C1C5.Cl.O | 13.71%
COC(=O)N1CCN(C(=O)Cc2ccc(Cl)c(Cl)c2)C(CN2CCCC2)C1.O=C(O)/C=C/C(=O)O (stereo not drawn) | 10.06%
CC[C@@H]1/C=C/C=C/C[C@H](C)[C@@H](O)[C@](C)(O)C(=O)[C@H](C)[C@@H](O)[C@H](C)C(=O)[C@H](C)[C@@H](O)[C@H](C)/C=C/C(=O)O[C@H]2[C@@H](C)[C@@H](CC1)O[C@@]1(CC[C@@H](C)[C@@H](C[C@H](C)O)O1)[C@@H]2C | 27.64%
CS(=O)(=O)Nc1ccc(Cc2noc(-c3ccc4[nH]cc(CCN)c4c3)n2)cc1.O.O | 28.37%
NCCc1ccccn1 | 8.39%
c1cncc([C@@H]2CCCN2)c1 [NORNICOTINE] | 21.79%
Nc1nc2ccc(Cl)cc2c2nc(-c3ccco3)nn12 [CGS-15943] | 17.29%
C[C@]12Cc3c[nH]nc3C[C@@H]1CC[C@@H]1[C@@H]2CC[C@@]2(C)[C@H]1CC[C@]2(C)O [STANOZOLOL] | 6.15%
CC(C)[C@]12O[C@H]1[C@@H]1O[C@]13[C@]1(O[C@H]1C[C@H]1C4=C(CC[C@@]13C)C(=O)OC4)[C@@H]2O [TRIPTOLIDE] | 17.86%
C[C@]12CCC(=O)C=C1CC[C@@H]1[C@@H]2CC[C@@]2(C)[C@H]1CC[C@]2(C)O [METHYLTESTOSTERONE] | 30.83%
C#C[C@]1(OC(C)=O)CC[C@H]2[C@@H]3CCC4=CC(=O)CC[C@@H]4[C@H]3CC[C@@]21C [NORETHINDRONE ACETATE] | 20.02%
Cc1c(O)c(=O)ccn1C [DEFERIPRONE] | 25.07%
Fc1ccc([C@@H]2CCNC[C@H]2COc2ccc3c(c2)OCO3)cc1.O=C(O)/C=C\C(=O)O | -2.08%
CCC1(c2ccc(N)cc2)CCC(=O)NC1=O (stereo not drawn) [AMINOGLUTETHIMIDE] | 5.09%
C[C@]12CCC(=O)C[C@@H]1CC[C@@H]1[C@@H]2CC[C@@]2(C)[C@H]1CC[C@]2(C)O [MESTANOLONE] | 9.3%
Cl.O.Oc1cc2c(cc1O)[C@H]1c3ccccc3CN[C@@H]1CC2 | 9.31%
